Drawing on paper doi:10.1101/2024.12.02.626298, this text covers binding for one substance.

Protein sequences, listed by entry. Tags and fused reporters are not part of them. Lines headed by an entry give the natural chain unless they say otherwise; changes in a name come on top.
UniProt A0QSL8: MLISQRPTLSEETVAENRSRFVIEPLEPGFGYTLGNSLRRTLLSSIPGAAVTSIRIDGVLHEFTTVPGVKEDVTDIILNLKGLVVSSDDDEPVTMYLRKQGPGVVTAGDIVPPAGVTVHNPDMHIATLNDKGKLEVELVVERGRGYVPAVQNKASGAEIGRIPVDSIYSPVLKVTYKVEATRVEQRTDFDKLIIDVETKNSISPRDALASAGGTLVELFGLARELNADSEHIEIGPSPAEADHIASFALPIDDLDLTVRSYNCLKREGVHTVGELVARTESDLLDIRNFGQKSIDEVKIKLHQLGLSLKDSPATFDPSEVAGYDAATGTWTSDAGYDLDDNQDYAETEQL

Like-named read-outs stand apart in the source and are kept apart here. Results are given in words; binding and its absence hold for the method and conditions named. In cells and extracts the contact can be indirect. Some entries that bind do so weakly or less than the wild type. Where a sequence is shown, tags or fusion partners need not be part of it.

Assay [1] addresses T1, CarD-FLAG (M. smegmatis) (UniProt A0R561).
T1 sequence: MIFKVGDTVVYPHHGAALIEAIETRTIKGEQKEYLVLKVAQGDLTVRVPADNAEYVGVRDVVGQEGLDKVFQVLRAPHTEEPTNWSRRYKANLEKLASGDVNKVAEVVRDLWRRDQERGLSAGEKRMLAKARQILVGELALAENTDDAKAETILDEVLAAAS
The assay can be described thus: co-IP.

Assay [2] deals with T1, CarD-FLAG (M. smegmatis). The assay can be described thus: co-IP. The source holds these as a separate data set.

Regarding “RNA polymerase (RNAP) (from UniProt A0QSL8 1-350; P60281 1-1169; A0QS66 1-1317; A0QWT1 1-107) (complex)”, the binding result with CarD-FLAG (M. smegmatis) [1] and in the assay with CarD-FLAG (M. smegmatis) [2] was “binds” in each case.
